Results are given in words; binding and its absence hold for the method and conditions named. Binding seen in cells or lysates may run through a third protein. Some entries that bind do so weakly or less than the wild type. Sequences can lack the tags named with a protein.
How the values were obtained:
purified Akt1 (Origene) = purified Akt1 (Origene) (UniProt P31749); test: GST pull-down of purified Akt1, western blot for Akt1
[1] = target: Akt1 (endogenous, in lysates of human Caco-2 or SW620 colon cancer cells) (human) (UniProt P31749); test: GST pull-down from cell lysate, western blot for Akt1
[2] = target: Akt1 (endogenous, in lysates of human Caco-2 or SW620 colon cancer cells) (human) (UniProt P31749); test: GST pull-down of Akt1 from cell lysate by GST-FAK truncations on beads, western blot

Protein sequences, listed by entry. Tags and fused reporters are not part of them.
UniProt P31749: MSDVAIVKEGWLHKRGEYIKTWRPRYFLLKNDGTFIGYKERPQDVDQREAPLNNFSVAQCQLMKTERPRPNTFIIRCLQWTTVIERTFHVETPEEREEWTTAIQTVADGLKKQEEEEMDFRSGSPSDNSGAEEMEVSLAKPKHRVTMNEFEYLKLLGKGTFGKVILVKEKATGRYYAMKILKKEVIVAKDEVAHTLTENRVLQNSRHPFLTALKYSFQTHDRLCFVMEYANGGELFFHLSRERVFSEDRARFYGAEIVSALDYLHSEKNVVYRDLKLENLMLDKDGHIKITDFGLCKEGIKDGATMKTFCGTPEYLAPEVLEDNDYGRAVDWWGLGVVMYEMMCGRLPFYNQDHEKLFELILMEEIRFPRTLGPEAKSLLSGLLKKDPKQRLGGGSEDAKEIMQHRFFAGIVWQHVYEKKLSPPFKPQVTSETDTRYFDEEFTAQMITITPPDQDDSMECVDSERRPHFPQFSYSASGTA

B1: GST-FAK-NT1 (FAK residues 1-126) (protein, not shown: a dimerising Fc or GST)
chain: MAAAYLDPNLNHTPNSSTKTHLGTGMERSPGAMERVLKVFHYFESNSEPTTWASIIRHGDATDVRGIIQKIVDSHKVKNVACYGFRLSHLRSEEVHWLHVDMGVSSVREKYELAHPPEEWKYELRI
binding (purified Akt1 (Origene)): binds | binding [1]: binds | binding [2]: binds

B2: GST-FAK-NT1-2 (FAK residues 61-126) (protein, not shown: a dimerising Fc or GST)
chain: ATDVRGIIQKIVDSHKVKNVACYGFRLSHLRSEEVHWLHVDMGVSSVREKYELAHPPEEWKYELRI
binding [2]: binds
